Measured values: paper PMC3584034

Assays:
[1] = target: T1, EpCAM (human (breast and colon cancer cell lines)) (UniProt P16422); experiment: flow cytometry; details: T47D, MCF-7, MDA-MB-231, HT-29 cells, 100 nM, 2'-fluoropyrimidine (Methods: 2'-fluoropyrimidine or 2'-O-methyl-pyrimidine bases), 3' inverted dT, flow cytometry: 100 nM aptamer, 30 min, 37 C, protein on the cell surface
T1 sequence: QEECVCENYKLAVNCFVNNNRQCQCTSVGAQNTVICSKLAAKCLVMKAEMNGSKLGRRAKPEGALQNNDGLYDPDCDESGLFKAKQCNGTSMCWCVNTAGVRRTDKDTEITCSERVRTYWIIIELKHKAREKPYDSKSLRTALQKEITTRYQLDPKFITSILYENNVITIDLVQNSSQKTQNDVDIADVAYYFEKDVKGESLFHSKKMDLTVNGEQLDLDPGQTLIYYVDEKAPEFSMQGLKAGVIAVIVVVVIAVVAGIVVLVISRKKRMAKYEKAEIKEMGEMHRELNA

[2] = target: T1, EpCAM (human (breast and colon cancer cell lines)); experiment: immunofluorescence of FFPE xenograft; details: 3' inverted dT, FFPE staining: PBS, 5 mM MgCl2, 0.1 mg/mL tRNA, 1 mg/mL BSA, 10% dextran sulphate, 500 ug/mL heparin, 100 nM aptamer, 15 min, 37 C, protein on the cell surface

ACGUAUCCCUUUUCGCGUA [Ep23]: binds ([1]; label: 5'-TYE665 (fluorescence) or 5'-FITC (chromogenic)); binds ([2]; T47D 3+, MCF7 2+, MDA-MB-231 1+, HT-29 3+, 100 nM, 5 mM MgCl2, dextran sulphate, heparin, 2'-fluoropyrimidine (Methods: 2'-fluoropyrimidine or 2'-O-methyl-pyrimidine bases), label: 5'-TYE665 (fluorescence) or 5'-FITC (chromogenic)).
GCGACUGGUUACCCGGUCG [DT3]: binds ([1]; label: 5'-DY647); no binding ([2]; HT-29 xenograft, no staining at 100 nM, attributed to lower affinity, 2'-fluoropyrimidine (Methods: 2'-fluoropyrimidine or 2'-O-methyl-pyrimidine bases), label: 5'-DY647); binds ([2]; T47D 2+, MCF7 1+, MDA-MB-231 1+, 100 nM, 5 mM MgCl2, dextran sulphate, heparin, 2'-fluoropyrimidine (Methods: 2'-fluoropyrimidine or 2'-O-methyl-pyrimidine bases), label: 5'-DY647).
GCGACUGGUUACCCGGUCG [Control aptamer]: no binding ([2]; T47D, MCF7, MDA-MB-231, HT-29 all negative, 2'-O-methyl at the positions marked m (mGCmGACUmGmGUUmACCCmGmGUcmG), same base sequence as DT3, label: 5'-DY647).

Construct, isoform or probe ends are uncertain for at least one entry. Results from cells or extracts need not show a direct contact. For part of these data: A negative result means that nothing was seen under these conditions. For part of these data: At least one verdict was read from the data and is not stated in words by the source.
